Measurements reported in PubChem BioAssay AID1159578 (Peter MacCallum Cancer Centre, 2015)

- Purpose: 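siRNA pools altering how lymphatic endothelial cells close a scratch wound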 (primary screen)
- Cells: human lymphatic endothelial cells
- Reagent: siRNA pool against human genes, 40 nM
- Timing: 48 h after transfection
- Detection: 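High-content imaging of dye-stained cells in a scratch assay measures filled wound area and nuclei per well; duplicate means given as ratio to mock and robust z-score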
- Reading the numbers: migration robust z-score: higher = faster migration into the scratch; nuclei per well: higher = more cells in the well
- Hit rule: 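Pools averaging fewer than 3300 nuclei are never called; remaining pools count as changed when migration robust z lies outside -2 to 2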
- Calls: active = migration changed; inactive = no migration change, or too few cells
Here is one part, drawn at random, of about 18,000 reagents tested. In the full data, about 1,030 (5.7%) are marked active. 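Inactive calls also include pools with fewer than 3300 nuclei, whose migration was not assessed.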 The raw values are shown without normalisation. The numbers tell different reagents against one gene apart. Not all columns of the deposit are shown.

ARID1B
- migration robust z-score: -1.64
- nuclei per well, duplicate mean: 5798
- Outcome: inactive

ASCL2
- migration robust z-score: 1.36
- nuclei per well, duplicate mean: 5822
- Outcome: inactive

LLPH
- migration robust z-score: 0.42
- nuclei per well, duplicate mean: 5640
- Outcome: inactive

BMERB1
- migration robust z-score: 0.49
- nuclei per well, duplicate mean: 4744
- Outcome: inactive

OR6C68
- migration robust z-score: -0.55
- nuclei per well, duplicate mean: 5224
- Outcome: inactive

STARD7-AS1
- migration robust z-score: -1.45
- nuclei per well, duplicate mean: 4942
- Outcome: inactive

CCDC50
- migration robust z-score: 0.08
- nuclei per well, duplicate mean: 6516
- Outcome: inactive

PRPS1
- migration robust z-score: -0.57
- nuclei per well, duplicate mean: 4324
- Outcome: inactive

ANKRD24
- migration robust z-score: -0.3
- nuclei per well, duplicate mean: 5884
- Outcome: inactive

DBX1
- migration robust z-score: -1.67
- nuclei per well, duplicate mean: 5988
- Outcome: inactive

OXNAD1
- migration robust z-score: 1.82
- nuclei per well, duplicate mean: 6736
- Outcome: inactive

KRTAP12-1
- migration robust z-score: -1.49
- nuclei per well, duplicate mean: 5398
- Outcome: inactive

C22orf42
- migration robust z-score: 0.11
- nuclei per well, duplicate mean: 3722
- Outcome: inactive

NDUFB8
- migration robust z-score: 0.19
- nuclei per well, duplicate mean: 7210
- Outcome: inactive

PNOC
- migration robust z-score: 0.68
- nuclei per well, duplicate mean: 5520
- Outcome: inactive

AKT2
- migration robust z-score: -2.21
- nuclei per well, duplicate mean: 3670
- Outcome: active

LMNB1
- migration robust z-score: -2.23
- nuclei per well, duplicate mean: 5986
- Outcome: active

OR52N2
- migration robust z-score: -0.26
- nuclei per well, duplicate mean: 3973
- Outcome: inactive

VAV1
- migration robust z-score: -1.45
- nuclei per well, duplicate mean: 6068
- Outcome: inactive

MYO18A #1
- migration robust z-score: -1.88
- nuclei per well, duplicate mean: 5494
- Outcome: inactive

MYO18A #2
- migration robust z-score: 0.41
- nuclei per well, duplicate mean: 5700
- Outcome: inactive

PIEZO2
- migration robust z-score: -0.16
- nuclei per well, duplicate mean: 6472
- Outcome: inactive

ZNF596
- migration robust z-score: -0.28
- nuclei per well, duplicate mean: 6170
- Outcome: inactive

USP40
- migration robust z-score: -1.22
- nuclei per well, duplicate mean: 4202
- Outcome: inactive

CTPS1
- migration robust z-score: 0.38
- nuclei per well, duplicate mean: 5294
- Outcome: inactive

MMP23B
- migration robust z-score: -0.8
- nuclei per well, duplicate mean: 5778
- Outcome: inactive

STRC
- migration robust z-score: -2.38
- nuclei per well, duplicate mean: 5663
- Outcome: active
